This is one part of the list.
Compound: Cc1cc(ccc1-c1ccccc1)C(=O)N1CCCN(CC1)C(=O)CCl [compound 10]
Assay: probe-labelled cysteine peptide fold change vs DMSO (competition) (log2 fold change); higher = less target engagement (more negative = stronger competition)
Settings: THP-1, incubation time: 4 h
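Note: competitive profiling in live THP-1 cells: cysteine peptides tagged with an iodoacetamide desthiobiotin (IA-DTB) probe, intensity after compound treatment relative to DMSO-treated cells.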

By UniProt entry, the sequences of proteins in these tests, tags left out. Where a name states a change or a piece, a line headed by the entry shows the natural chain unless it says otherwise.
UniProt P07910: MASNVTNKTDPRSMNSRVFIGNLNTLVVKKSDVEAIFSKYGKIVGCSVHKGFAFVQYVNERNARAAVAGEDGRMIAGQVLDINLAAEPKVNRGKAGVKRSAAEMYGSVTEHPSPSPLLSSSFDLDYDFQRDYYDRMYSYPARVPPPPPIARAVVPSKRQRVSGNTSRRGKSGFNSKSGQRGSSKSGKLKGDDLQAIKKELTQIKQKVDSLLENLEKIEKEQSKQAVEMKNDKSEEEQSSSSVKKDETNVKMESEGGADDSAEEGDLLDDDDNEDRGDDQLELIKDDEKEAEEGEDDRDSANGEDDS
UniProt Q6YN16: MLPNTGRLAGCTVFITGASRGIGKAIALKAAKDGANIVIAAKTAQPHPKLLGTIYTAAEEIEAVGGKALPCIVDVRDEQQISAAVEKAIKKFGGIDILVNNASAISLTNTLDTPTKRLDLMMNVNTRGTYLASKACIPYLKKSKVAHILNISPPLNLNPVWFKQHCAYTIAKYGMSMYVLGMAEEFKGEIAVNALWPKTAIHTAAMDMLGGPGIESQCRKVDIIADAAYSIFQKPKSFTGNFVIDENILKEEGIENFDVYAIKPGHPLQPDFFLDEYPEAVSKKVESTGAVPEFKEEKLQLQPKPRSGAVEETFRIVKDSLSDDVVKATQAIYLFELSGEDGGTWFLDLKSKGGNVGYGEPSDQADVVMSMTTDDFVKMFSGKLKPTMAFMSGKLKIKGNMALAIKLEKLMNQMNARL
UniProt P28845: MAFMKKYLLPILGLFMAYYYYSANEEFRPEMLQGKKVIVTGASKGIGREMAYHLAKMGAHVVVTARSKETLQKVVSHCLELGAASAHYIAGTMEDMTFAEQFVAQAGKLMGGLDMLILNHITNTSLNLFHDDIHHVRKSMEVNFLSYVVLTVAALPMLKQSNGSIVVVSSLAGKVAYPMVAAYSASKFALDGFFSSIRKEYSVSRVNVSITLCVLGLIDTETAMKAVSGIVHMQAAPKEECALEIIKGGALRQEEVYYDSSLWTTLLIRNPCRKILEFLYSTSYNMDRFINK
UniProt P10809, whole entry, looked up: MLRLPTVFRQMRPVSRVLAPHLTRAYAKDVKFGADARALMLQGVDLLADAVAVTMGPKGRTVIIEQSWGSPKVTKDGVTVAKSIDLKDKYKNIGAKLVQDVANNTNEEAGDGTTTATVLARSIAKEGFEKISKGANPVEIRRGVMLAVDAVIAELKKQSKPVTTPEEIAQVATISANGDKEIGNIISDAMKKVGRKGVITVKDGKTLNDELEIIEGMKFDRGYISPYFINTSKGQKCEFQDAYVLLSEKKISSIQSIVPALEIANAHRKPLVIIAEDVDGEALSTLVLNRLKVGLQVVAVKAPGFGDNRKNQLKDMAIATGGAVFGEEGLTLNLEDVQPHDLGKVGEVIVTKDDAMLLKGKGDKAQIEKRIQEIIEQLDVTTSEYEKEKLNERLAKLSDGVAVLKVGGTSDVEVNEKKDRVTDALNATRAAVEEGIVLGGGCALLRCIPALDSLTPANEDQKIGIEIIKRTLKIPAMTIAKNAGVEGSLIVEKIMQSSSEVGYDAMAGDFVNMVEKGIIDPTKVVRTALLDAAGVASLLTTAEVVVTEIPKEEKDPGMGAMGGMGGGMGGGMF
UniProt Q53GQ0: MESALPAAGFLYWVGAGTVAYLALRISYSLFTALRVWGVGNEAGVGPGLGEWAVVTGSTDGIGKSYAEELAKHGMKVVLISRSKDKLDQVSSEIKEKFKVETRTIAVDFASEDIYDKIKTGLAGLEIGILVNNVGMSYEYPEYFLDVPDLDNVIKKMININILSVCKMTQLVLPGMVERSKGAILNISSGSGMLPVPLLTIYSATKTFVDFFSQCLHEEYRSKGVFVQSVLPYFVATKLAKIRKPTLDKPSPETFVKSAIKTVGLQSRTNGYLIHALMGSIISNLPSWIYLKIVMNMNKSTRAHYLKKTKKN
UniProt P52597: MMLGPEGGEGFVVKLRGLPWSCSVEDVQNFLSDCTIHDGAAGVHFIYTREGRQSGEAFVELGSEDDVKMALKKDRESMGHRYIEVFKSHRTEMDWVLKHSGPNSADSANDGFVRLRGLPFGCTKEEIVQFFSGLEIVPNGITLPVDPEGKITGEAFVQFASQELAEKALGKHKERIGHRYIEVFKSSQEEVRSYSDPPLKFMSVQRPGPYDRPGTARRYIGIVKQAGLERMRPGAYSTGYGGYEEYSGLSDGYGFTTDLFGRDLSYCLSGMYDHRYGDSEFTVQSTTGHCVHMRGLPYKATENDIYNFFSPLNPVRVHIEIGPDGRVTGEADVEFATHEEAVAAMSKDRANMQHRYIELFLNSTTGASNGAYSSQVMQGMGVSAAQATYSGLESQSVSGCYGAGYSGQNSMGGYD
UniProt Q969F9: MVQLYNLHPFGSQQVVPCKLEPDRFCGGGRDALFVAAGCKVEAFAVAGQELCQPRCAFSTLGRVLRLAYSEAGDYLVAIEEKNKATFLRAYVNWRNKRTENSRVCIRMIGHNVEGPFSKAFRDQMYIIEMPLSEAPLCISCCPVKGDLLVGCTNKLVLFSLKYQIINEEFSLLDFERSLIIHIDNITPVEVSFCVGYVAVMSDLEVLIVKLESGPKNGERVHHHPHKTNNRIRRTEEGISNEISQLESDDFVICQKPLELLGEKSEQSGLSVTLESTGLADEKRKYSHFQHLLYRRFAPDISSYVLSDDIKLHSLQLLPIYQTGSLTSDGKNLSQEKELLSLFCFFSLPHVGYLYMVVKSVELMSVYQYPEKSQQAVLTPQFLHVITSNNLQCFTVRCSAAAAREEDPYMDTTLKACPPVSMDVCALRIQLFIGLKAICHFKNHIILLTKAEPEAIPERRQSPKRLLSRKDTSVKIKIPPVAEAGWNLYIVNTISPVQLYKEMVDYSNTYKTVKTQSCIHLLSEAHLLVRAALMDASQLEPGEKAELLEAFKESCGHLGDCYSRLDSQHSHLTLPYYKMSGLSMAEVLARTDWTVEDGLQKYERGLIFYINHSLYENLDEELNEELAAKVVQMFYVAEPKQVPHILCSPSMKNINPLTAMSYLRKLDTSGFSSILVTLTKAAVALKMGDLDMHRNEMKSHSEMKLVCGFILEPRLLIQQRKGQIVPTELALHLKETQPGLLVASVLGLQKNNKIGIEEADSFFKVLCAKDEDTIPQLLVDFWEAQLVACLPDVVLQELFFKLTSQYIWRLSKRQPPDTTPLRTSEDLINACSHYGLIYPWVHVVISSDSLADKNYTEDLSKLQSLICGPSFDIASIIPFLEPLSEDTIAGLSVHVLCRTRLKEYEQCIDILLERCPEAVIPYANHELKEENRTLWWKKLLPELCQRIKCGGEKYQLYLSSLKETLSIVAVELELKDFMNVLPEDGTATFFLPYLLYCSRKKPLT
UniProt Q9NZL4: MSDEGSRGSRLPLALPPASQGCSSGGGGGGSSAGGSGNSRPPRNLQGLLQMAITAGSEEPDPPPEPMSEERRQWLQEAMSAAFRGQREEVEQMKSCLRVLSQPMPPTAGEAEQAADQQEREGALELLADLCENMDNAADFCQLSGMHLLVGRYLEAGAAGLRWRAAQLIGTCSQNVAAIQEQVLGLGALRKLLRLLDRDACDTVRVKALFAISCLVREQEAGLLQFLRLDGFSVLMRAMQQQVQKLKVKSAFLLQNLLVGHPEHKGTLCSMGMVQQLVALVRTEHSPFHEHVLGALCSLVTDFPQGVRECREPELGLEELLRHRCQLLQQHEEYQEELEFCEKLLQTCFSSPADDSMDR

Target: HNRNPC_P07910_46_IVGCSVHK (UniProt P07910)
- probe-labelled cysteine peptide fold change (10 µM): 0.221
- probe-labelled cysteine peptide fold change (50 µM): 0.221

Target: HSDL2_Q6YN16_218_TAIHTAAMDMLGGPGIESQCR (UniProt Q6YN16)
- probe-labelled cysteine peptide fold change (10 µM): -0.174
- probe-labelled cysteine peptide fold change (50 µM): -0.321

Target: HSD11B1_P28845_241_EECALEIIK (UniProt P28845)
- probe-labelled cysteine peptide fold change (10 µM): -0.15
- probe-labelled cysteine peptide fold change (50 µM): 0.0682

Target: HSPD1_P10809_237_CEFQDAYVLLSEK (UniProt P10809)
- probe-labelled cysteine peptide fold change (10 µM): -0.0669
- probe-labelled cysteine peptide fold change (50 µM): 0.139

Target: HSD17B12_Q53GQ0_215_TFVDFFSQCLHEEYR (UniProt Q53GQ0)
- probe-labelled cysteine peptide fold change (10 µM): 0.029
- probe-labelled cysteine peptide fold change (50 µM): 0.278

Target: HNRNPF_P52597_267_DLSYCLSGMYDHR (UniProt P52597)
- probe-labelled cysteine peptide fold change (10 µM): 0.0306
- probe-labelled cysteine peptide fold change (50 µM): -0.242

Target: HPS3_Q969F9_254_TEEGISNEISQLESDDFVICQK (UniProt Q969F9)
- probe-labelled cysteine peptide fold change (10 µM): -0.36
- probe-labelled cysteine peptide fold change (50 µM): -0.219

Target: HSPBP1_Q9NZL4_325_CQLLQQHEEYQEELEFCEK (UniProt Q9NZL4)
- probe-labelled cysteine peptide fold change (10 µM): 0.048
- probe-labelled cysteine peptide fold change (50 µM): 0.0616

Target: HSP90AA1_P07900_420_CLELFTELAEDK (UniProt P07900)
- probe-labelled cysteine peptide fold change (10 µM): -0.0655
- probe-labelled cysteine peptide fold change (50 µM): 0.0245
